From patent US9585875B2, “TRPM8 antagonists” (Dompé S.P.A., priority 2011, dated 2017)
Some of these results come from one statement about several compounds together.

Amino acid sequences for entries named in this document (tags omitted).
UniProt Q7Z2W7, whole entry: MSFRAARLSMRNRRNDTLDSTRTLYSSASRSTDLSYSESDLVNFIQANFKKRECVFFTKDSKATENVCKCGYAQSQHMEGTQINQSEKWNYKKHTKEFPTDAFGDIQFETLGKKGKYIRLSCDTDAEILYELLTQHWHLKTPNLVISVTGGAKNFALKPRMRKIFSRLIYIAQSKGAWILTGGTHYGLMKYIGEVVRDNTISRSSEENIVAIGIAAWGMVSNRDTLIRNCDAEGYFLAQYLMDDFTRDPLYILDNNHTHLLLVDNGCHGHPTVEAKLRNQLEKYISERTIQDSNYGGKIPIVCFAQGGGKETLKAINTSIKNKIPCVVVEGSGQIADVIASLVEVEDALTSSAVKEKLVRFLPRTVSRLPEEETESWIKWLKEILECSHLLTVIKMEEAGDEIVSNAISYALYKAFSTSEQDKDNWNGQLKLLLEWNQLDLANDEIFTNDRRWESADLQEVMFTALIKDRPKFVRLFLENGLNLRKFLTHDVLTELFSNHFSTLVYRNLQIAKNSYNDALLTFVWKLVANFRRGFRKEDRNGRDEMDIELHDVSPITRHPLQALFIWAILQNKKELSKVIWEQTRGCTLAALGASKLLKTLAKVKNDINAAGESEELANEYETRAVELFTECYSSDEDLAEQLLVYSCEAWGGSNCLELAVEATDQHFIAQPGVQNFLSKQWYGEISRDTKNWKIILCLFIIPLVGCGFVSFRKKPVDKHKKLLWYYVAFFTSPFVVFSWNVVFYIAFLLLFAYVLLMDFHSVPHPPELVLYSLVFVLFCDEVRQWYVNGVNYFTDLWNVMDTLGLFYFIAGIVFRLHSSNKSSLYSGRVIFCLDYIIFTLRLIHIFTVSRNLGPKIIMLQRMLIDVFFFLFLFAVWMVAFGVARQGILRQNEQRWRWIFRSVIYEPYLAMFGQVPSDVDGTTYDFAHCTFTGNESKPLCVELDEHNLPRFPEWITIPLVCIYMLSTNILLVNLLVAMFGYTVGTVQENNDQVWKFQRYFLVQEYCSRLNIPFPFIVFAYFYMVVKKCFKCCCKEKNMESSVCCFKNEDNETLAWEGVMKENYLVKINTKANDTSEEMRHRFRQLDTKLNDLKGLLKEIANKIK

target: TRPM8 (Homo sapiens, UniProt Q7Z2W7); test: HTS cell-based Ca2+ mobilization assay (FLIPR TETRA) in HEK293/hTRPM8 cells, agonist Cooling Agent 10; design: expressed in transfected cells; details: HEK293/hTRPM8, Cooling Agent 10 at EC80
From the text: A functional cell-based assay for the identification of TRPM8 receptor antagonists, optimised to allow high throughput screening at FLIPR^TETRA, was developed in HEK293 cells by stable pure clone selection and functional characterization with a fluorescent calcium sensitive dye.
TRPM8 was cloned into the multiple cloning site of pcDNA3 mammalian expression vector; the obtained construct pcDNA3/hTRPM8 was fully sequence verified and used for the transfection of HEK293 cell line. HEK293 cells stably transfected with TRPM8 gene were maintained in Minimum essential medium. The cells were transfected with the pcDNA3/hTRPM8 vector by electroporation and then selected with medium containing 0.8 mg/ml G418 for 10-15 days.
The following commercial compounds were used as ligands:
Activator: Cooling Agent 10 (Takasago CAS N. 87061-04-9)
Blocker: Capsazepine (SIGMA cat #D_5879)
The experimental activities were performed using FLIPR^TETRA instruments.
HEK293 cells stably transfected with TRPM8 gene were maintained in Minimum essential medium.
The TRPM8 cell line was analysed for the response to a library of compounds using a Ca^2+ mobilization-dependent fluorescence signal in 384 wells microtiter plate format. The analysis was performed using the FLIPR^TETRA (MDC) with the ICCD Camera.
The execution of the assay involved the use of three microtiter plates:
1. Assay plate, containing cells loaded with dye and prepared as follows:
Cells were seeded at 15000 c/well in Poly-D-Lysine coated 384 wells Microtiter Plates in complete medium (25 μl/well).
24 h after seeding, the cell plates were washed with Tyrode assay buffer by the Microplate Washer and 10 μL of Tyrode assay buffer was left in each well.
Cells were then loaded with 10 μL/well of the Fluo-4 NW dye solution by CyBi®-Well pipettor. Each bottle of Fluo4-NW dye (Molecular Probes cat. #F36206, component A) was re-suspended in 8 mL of Tyrode assay buffer and supplemented with 100 μL of water-soluble probenecid (MolecularProbes cat.#F36206, component B).
Dye loaded cell plates were incubated for 1 h at room temperature.
2. Compound Dilution Plate (FIG. 1), containing diluted test compounds, formulated as follows: […]
Column 1: wells containing Assay Buffer plus DMSO 0.5% final
Columns 3-22: wells containing Assay Buffer plus 0.5% DMSO final. To these wells the compounds to be tested were added at 3× concentration.
Column 23: alternating wells of Max Signal Control in second injection (Assay buffer) and Min Signal Control in second injection (Antagonist Capsazepine IC100, 50 μM) in Assay buffer plus 0.5% DMSO final;
Column 24: wells containing Capsazepine (Antagonist) at 8 concentrations in duplicate at final concentrations of 50 μM, 25 μM, 6.25 μM, 3.15 μM, 1.56 μM, 780 nM, […] in Assay buffer plus 0.5% DMSO final.
3. Activator Plate (FIG. 2), containing agonist Cooling Agent 10 at EC80, formulated as follows:
Column 1: Cooling Agent 10 (Agonist) at 8 concentrations dose response in duplicate at final concentrations of 100 μM, 31.6 μM, 10 μM, 3.16 μM, 1 μM, 316 nM, 100 nM, 31.6 nM in Assay buffer;
Columns 2-24: Cooling Agent 10 (Agonist) at EC80 (3 fold concentrated, 20 μM final) in Assay buffer.
The test was carried out according to a procedure comprising the following steps:
1. The samples contained in the wells of the Compound Plate were added to the corresponding wells of the Assay Plate by the FLIPR^TETRA, thus resulting in the addition in Columns 3-22 of the test compounds at 3× concentration to the cells of the assay plates. No mixing was performed in the assay wells and the signal of the emitted fluorescence was recorded for 300 seconds. 2. The samples contained in the wells of the Activator Plate were added to the corresponding wells of the Assay Plate by the FLIPR^TETRA, thus resulting in the addition in Columns 3-22 of the Assay Plate of the agonist compound in addition to the test compounds. The signal of the emitted fluorescence was recorded for 180 seconds.

IC50, < 30 µM:
O=C(O)c1sc(-c2cccc(F)c2)nc1O [Compound 3, 2-(3-fluorophenyl)-4-hydroxy-1,3-thiazole-5-carboxylic acid]
O=C(O)c1sc(-c2ccc(F)cc2)nc1O [Compound 4, 2-(4-fluorophenyl)-4-hydroxy-1,3-thiazole-5-carboxylic acid]
COC(=O)c1sc(-c2ccc(F)cc2F)nc1O [Compound 6, methyl 2-(2,4-difluorophenyl)-4-hydroxy-1,3-thiazole-5-carboxylate]
CCOC(=O)c1sc(-c2ccccc2)nc1O [Compound 7, ethyl 4-hydroxy-2-phenyl-1,3-thiazole-5-carboxylate]
CCOC(=O)c1sc(-c2ccncc2)nc1O [Compound 12, ethyl 4-hydroxy-2-(pyridin-4-yl)-1,3-thiazole-5-carboxylate]
CCOC(=O)c1sc(-c2ccc(N(C)C)cc2)nc1O [Compound 13, ethyl 2-[4-(dimethylamino)phenyl]-4-hydroxy-1,3-thiazole-5-carboxylate]
CCOC(=O)c1sc(-c2cccc(Cl)c2)nc1O [Compound 14, ethyl 2-(3-chlorophenyl)-4-hydroxy-1,3-thiazole-5-carboxylate]
CCOC(=O)c1sc(-c2cccc(-c3ccccc3C(F)(F)F)c2)nc1O [Compound 15, ethyl 4-hydroxy-2-[2′-(trifluoromethyl)biphenyl-3-yl]-1,3-thiazole-5-carboxylate]
CCOC(=O)c1sc(-c2cccc(-c3ccccc3F)c2)nc1O [Compound 16, ethyl 2-(2′-fluorobiphenyl-3-yl)-4-hydroxy-1,3-thiazole-5-carboxylate]
CCOC(=O)c1sc(-c2ccc(-c3ccccc3C(F)(F)F)cc2)nc1O [Compound 17, ethyl 4-hydroxy-2-[2′-(trifluoromethyl)biphenyl-4-yl]-1,3-thiazole-5-carboxylate]
CCOC(=O)c1sc(-c2ccc(-c3ccccc3F)cc2)nc1O [Compound 18, ethyl 2-(2′-fluorobiphenyl-4-yl)-4-hydroxy-1,3-thiazole-5-carboxylate]
CCOC(=O)c1sc(-c2ccc(OCc3ccccc3F)cc2)nc1O [Compound 19, ethyl 2-{4-[(2-fluorobenzyl)oxy]phenyl}-4-hydroxy-1,3-thiazole-5-carboxylate]
CCOC(=O)c1sc(-c2ccc(OCc3ccc(F)cc3)cc2)nc1O [Compound 20, ethyl 2-{4-[(4-fluorobenzyl)oxy]phenyl}-4-hydroxy-1,3-thiazole-5-carboxylate]
CCOC(=O)c1sc(-c2ccc(F)cc2)nc1OS(=O)(=O)C(F)(F)F [Compound 21, ethyl 2-(4-fluorophenyl)-4-{[(trifluoromethyl)sulfonyl]oxy}-1,3-thiazole-5-carboxylate]
CCOC(=O)c1sc(-c2ccc(C)cc2)nc1OC [Compound 22, ethyl 4-methoxy-2-(4-methylphenyl)-1,3-thiazole-5-carboxylate]
CCOC(=O)c1sc(-c2ccc(C)cc2)nc1OCC(C)C [Compound 23, ethyl 2-(4-methylphenyl)-4-(2-methylpropoxy)-1,3-thiazole-5-carboxylate]
CCOC(=O)c1sc(-c2ccccc2)nc1OCc1ccccc1 [Compound 24, ethyl 4-(benzyloxy)-2-phenyl-1,3-thiazole-5-carboxylate]
CCOC(=O)c1sc(-c2ccc(Cl)cc2)nc1OCc1cccc(Cl)c1 [Compound 25, ethyl 4-[(3-chlorobenzyl)oxy]-2-(4-chlorophenyl)-1,3-thiazole-5-carboxylate]
CCOC(=O)c1sc(-c2cccc(F)c2)nc1OCc1cccc(Cl)c1 [Compound 26, ethyl 4-[(3-chlorobenzyl)oxy]-2-(3-fluorophenyl)-1,3-thiazole-5-carboxylate]
CCOC(=O)c1sc(-c2cccc(Cl)c2)nc1OCc1ccc(Cl)cc1 [Compound 28, ethyl 4-[(4-chlorobenzyl)oxy]-2-(3-chlorophenyl)-1,3-thiazole-5-carboxylate]
CCOC(=O)c1sc(-c2ccc(C)cc2)nc1OCc1ccc(Cl)cc1 [Compound 29, ethyl 4-[(4-chlorobenzyl)oxy]-2-(4-methylphenyl)-1,3-thiazole-5-carboxylate]
CCOC(=O)c1sc(-c2cccc(F)c2)nc1OCc1ccc(Cl)cc1 [Compound 30, ethyl 4-[(4-chlorobenzyl)oxy]-2-(3-fluorophenyl)-1,3-thiazole-5-carboxylate]
CCOC(=O)c1sc(-c2ccccc2)nc1OCc1ccccc1Cl [Compound 31, ethyl 4-[(2-chlorobenzyl)oxy]-2-phenyl-1,3-thiazole-5-carboxylate]
CCOC(=O)c1sc(-c2ccc(F)cc2)nc1OCc1ccccc1Cl [Compound 32, ethyl 4-[(2-chlorobenzyl)oxy]-2-(4-fluorophenyl)-1,3-thiazole-5-carboxylate]
CCOC(=O)c1sc(-c2ccc(Cl)cc2)nc1OCc1ccccc1Cl [Compound 33, ethyl 4-[(2-chlorobenzyl)oxy]-2-(4-chlorophenyl)-1,3-thiazole-5-carboxylate]
CCOC(=O)c1sc(-c2cccc(Cl)c2)nc1OCc1ccccc1Cl [Compound 34, ethyl 4-[(2-chlorobenzyl)oxy]-2-(3-chlorophenyl)-1,3-thiazole-5-carboxylate]
CCOC(=O)c1sc(-c2ccc(C)cc2)nc1OCc1ccccc1Cl [Compound 35, ethyl 4-[(2-chlorobenzyl)oxy]-2-(4-methylphenyl)-1,3-thiazole-5-carboxylate]
CCOC(=O)c1sc(-c2cccc(F)c2)nc1OC(=O)c1ccc(C(F)(F)F)cc1 [Compound 37, ethyl 2-(3-fluorophenyl)-4-{[4-(trifluoromethyl)benzoyl]oxy}-1,3-thiazole-5-carboxylate]
CCOC(=O)c1sc(-c2ccc(C)cc2)nc1OC(=O)c1ccc(C(F)(F)F)cc1 [Compound 38, ethyl 2-(4-methylphenyl)-4-{[4-(trifluoromethyl)benzoyl]oxy}-1,3-thiazole-5-carboxylate]
CCOC(=O)c1sc(-c2ccc(C)cc2)nc1OC(=O)CO[C@@H]1C[C@H](C)CC[C@H]1C(C)C [Compound 39, ethyl4-(2-((1R,2S,5R)-2-isopropyl-5-methylcyclohexyloxy)acetoyloxy)-2-(4-methylphenyl)-1,3-thiazole-5-carboxylate]
CCOC(=O)c1sc(-c2ccc(Cl)cc2)nc1OCCNCc1ccco1 [Compound 42, ethyl 2-(4-chlorophenyl)-4-{2-[(furan-2-ylmethyl)amino]ethoxy}-1,3-thiazole-5-carboxylate]
O=C(O)c1sc(-c2ccccc2)nc1OCc1ccc(Cl)cc1 [Compound 44, 4-[(4-chlorobenzyl)oxy]-2-phenyl-1,3-thiazole-5-carboxylic acid]
O=C(O)c1sc(-c2cccc(Cl)c2)nc1OCc1ccc(Cl)cc1 [Compound 46, 4-[(4-chlorobenzyl)oxy]-2-(3-chlorophenyl)-1,3-thiazole-5-carboxylic acid]
O=C(O)c1sc(-c2ccccc2)nc1OCc1ccccc1 [Compound 47, 4-(benzyloxy)-2-phenyl-1,3-thiazole-5-carboxylic acid]
